PubChem BioAssay AID1224826 – NIAID, 2016
Here is a random part of about 17,000 reagents. Over the whole deposit, about 1,110 (6.6%) got an active call. 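Active means lowered or raised reporter signal; replicate intensities are raw and not normalised per plate.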 A number with no mark means an inactive call. Some reagents were tested in more than one well and are listed for each.

- Aim: 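Regulators of Tlr4 signalling leading to Tnf-alpha expression in macrophages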 (primary screen)
- Cell system: RAW264.7 G9 macrophages from mouse bearing reporters for p65 (GFP) and the Tnf promoter (mCherry)
- Knock-down reagent: siRNA pool against mouse genes, 100 nM
- Duration: 16 h of LPS stimulation, after 2 days of siRNA transfection
- Challenge: bacterial lipopolysaccharide (Salmonella minnesota R595), 10 ng/ml
- Measured: 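Imaged Tnf reporter mCherry in nuclei, minus background, normalised per plate to the median and expressed as robust z-scores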
- Reading the numbers: Tnf reporter robust z-score: higher = stronger Tnf promoter reporter signal after LPS; Tnf reporter intensity: higher = stronger Tnf promoter reporter signal
- Rule for the call: 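Called active when robust z-score is at most -1.3, matching the median of the Tlr4 knock-down control, or over 3; control wells and wells with under 50 cells never active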
- Meaning of the calls: active = Tnf reporter clearly lowered or raised; inactive = no clear change in Tnf reporter

| gene | Tnf reporter robust z-score | fewer than 50 cells in well | Tnf reporter intensity, replicate 1 | Tnf reporter intensity, replicate 2 |
| --- | --- | --- | --- | --- |
| Rrbp1 | -1.41 (active) | enough cells in well | 63.4 | 62 |
| Rgs7 | 0.55 | enough cells in well | 162 | 146 |
| Rgs7 | 0.18 | enough cells in well | 342 | 78.8 |
| Pla2r1 | 0.44 | enough cells in well | 325 | 184 |
| Cmss1 | -0.64 | enough cells in well | 194 | 55.8 |
| Prx | -0.07 | enough cells in well | 191 | 230 |
| 4930512M02Rik | -0.08 | enough cells in well | 202 | 50.1 |
| Ccdc97 | – | fewer than 50 cells per well; well left out of calls | 49.9 | 49.8 |
| Mep1b | -0.44 | enough cells in well | 200 | 195 |
| Hemgn | -0.77 | enough cells in well | 190 | 116 |
| Tnf | -1.49 (active) | enough cells in well | 110 | 70.6 |
| Eloa | 0.01 | enough cells in well | 224 | 141 |
| Acox2 | -1.61 (active) | enough cells in well | 71.5 | 83.9 |
| Lrrc41 | 3 | enough cells in well | 385 | 320 |
| Prss8 | -1.18 | enough cells in well | 83.3 | 88 |
| Cfi | 1.16 | enough cells in well | 331 | 300 |
| Fanca | 1.81 | enough cells in well | 387 | 351 |
| Zfp750 | 1.77 | enough cells in well | 294 | 222 |
| Ndc80 | -0.34 | enough cells in well | 230 | 120 |
| Or52ad1 | – | fewer than 50 cells per well; well left out of calls | 0 | 26.7 |
| Ap2b1 | – | fewer than 50 cells per well; well left out of calls | 79.4 | 85.2 |
| Vmn1r5 | 2.94 | enough cells in well | 221 | 191 |
| Ints5 | 0.55 | enough cells in well | 294 | 96.1 |
| Slc22a13 | 3.68 (active) | enough cells in well | 203 | 252 |
